What all share (test): EMSA
(In general: Mobility shift assays separate free from complexed probe on a gel.)

Chains of the proteins cited; added tags and fusions are not shown. A line that says so, or that is headed by a name, gives the form on record, which may keep a tag or linker.
INTS3FL in co-expressed complex + hNABP2 (hSSB1) + C9ORF80, one chain, as listed by the source, chain 1 of 2: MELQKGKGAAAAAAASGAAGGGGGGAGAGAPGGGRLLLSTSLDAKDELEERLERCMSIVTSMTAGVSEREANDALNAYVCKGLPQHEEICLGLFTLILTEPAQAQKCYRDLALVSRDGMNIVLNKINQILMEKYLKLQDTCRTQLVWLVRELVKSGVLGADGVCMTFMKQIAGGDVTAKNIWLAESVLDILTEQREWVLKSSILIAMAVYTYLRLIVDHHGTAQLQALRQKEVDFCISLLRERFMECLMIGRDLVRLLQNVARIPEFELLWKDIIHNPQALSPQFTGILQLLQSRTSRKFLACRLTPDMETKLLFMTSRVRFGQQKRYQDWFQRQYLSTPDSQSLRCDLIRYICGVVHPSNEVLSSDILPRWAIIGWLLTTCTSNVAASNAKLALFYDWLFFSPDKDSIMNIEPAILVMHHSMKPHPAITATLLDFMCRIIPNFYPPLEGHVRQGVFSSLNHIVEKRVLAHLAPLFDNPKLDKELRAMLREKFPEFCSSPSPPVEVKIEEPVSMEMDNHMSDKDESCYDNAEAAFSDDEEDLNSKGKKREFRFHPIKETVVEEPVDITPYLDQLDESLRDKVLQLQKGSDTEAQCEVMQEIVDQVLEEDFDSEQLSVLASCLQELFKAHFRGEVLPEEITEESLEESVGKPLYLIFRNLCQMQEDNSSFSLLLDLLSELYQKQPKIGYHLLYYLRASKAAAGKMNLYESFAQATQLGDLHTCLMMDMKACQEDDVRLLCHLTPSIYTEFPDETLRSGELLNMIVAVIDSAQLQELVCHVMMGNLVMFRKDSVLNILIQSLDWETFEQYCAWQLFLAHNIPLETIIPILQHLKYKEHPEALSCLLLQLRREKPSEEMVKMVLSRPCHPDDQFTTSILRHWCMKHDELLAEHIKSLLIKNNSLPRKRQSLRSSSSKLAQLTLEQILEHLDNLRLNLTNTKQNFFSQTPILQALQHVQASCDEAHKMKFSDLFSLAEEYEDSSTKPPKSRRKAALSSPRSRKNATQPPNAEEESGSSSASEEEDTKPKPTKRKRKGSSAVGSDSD
INTS3N (human), one chain, as listed by the source: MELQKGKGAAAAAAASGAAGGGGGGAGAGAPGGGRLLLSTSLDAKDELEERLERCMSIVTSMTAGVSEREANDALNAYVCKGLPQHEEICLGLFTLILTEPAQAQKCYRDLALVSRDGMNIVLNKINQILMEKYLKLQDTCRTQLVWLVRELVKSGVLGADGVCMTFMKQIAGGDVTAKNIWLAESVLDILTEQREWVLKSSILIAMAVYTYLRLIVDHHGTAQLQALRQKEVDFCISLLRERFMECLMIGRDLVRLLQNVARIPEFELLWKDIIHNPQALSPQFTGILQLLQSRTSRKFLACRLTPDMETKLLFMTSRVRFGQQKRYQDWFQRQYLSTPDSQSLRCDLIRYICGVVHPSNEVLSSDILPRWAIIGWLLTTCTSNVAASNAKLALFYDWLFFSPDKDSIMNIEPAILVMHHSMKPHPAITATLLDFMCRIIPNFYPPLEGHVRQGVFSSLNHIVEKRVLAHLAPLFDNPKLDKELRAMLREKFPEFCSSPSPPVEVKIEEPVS

Data set [1] deals with INTS3FL in co-expressed complex + hNABP2 (hSSB1) + C9ORF80. To be noted: EMSA: 20 mM HEPES pH 7.3, 100 mM KCl, 1 mM MgCl2, 1 mg/ml BSA, 1 mM DTT, 6% glycerol, 0.5 nM 32P substrate, 30 min on ice; 5% native PAGE, 1x TBE, 4°C; recombinant protein; label: 5'-32P; single-stranded DNA.
For another data set, the system named is INTS3FL + hNABP1 (hSSB2). To be noted: EMSA: 20 mM HEPES pH 7.3, 100 mM KCl, 1 mM MgCl2, 1 mg/ml BSA, 1 mM DTT, 6% glycerol, 0.5 nM 32P substrate, 30 min on ice, 5% native PAGE, 1x TBE, 4°C, recombinant protein, protein details: GST cleaved (PreScission),His, label: 5'-32P.
A further data set has as its system INTS3N (human). To be noted: EMSA: 20 mM HEPES pH 7.3, 100 mM KCl, 1 mM MgCl2, 1 mg/ml BSA, 1 mM DTT, 6% glycerol, 0.5 nM 32P substrate, 30 min on ice, 5% native PAGE, 1x TBE, 4°C, recombinant protein, residues 1-513, label: 5'-32P.
Another data set relates to INTS3FL + hNABP2 (hSSB1). To be noted: EMSA: 20 mM HEPES pH 7.3, 100 mM KCl, 1 mM MgCl2, 1 mg/ml BSA, 1 mM DTT, 6% glycerol, 0.5 nM 32P substrate, 30 min on ice, 5% native PAGE, 1x TBE, 4°C, recombinant protein, protein details: GST cleaved (PreScission),His, label: 5'-32P.
For another data set, the system named is INTS3FL (human). The note with it: EMSA: 20 mM HEPES pH 7.3, 100 mM KCl, 1 mM MgCl2, 1 mg/ml BSA, 1 mM DTT, 6% glycerol, 0.5 nM 32P substrate, 30 min on ice; 5% native PAGE, 1x TBE, 4°C; recombinant protein; residues 1-1042; protein details: GST cleaved (PreScission); label: 5'-32P; single-stranded DNA.
The next data set deals with T1, C9ORF80 (human) (UniProt Q9NRY2).
T1 sequence (looked up): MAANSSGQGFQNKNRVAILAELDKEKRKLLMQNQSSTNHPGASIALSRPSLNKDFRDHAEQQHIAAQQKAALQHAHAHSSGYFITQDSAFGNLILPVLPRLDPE
To be noted: EMSA: 20 mM HEPES pH 7.3, 100 mM KCl, 1 mM MgCl2, 1 mg/ml BSA, 1 mM DTT, 6% glycerol, 0.5 nM 32P substrate, 30 min on ice, 5% native PAGE, 1x TBE, 4°C, recombinant protein, residues 1-104, protein details: His (pET28a), label: 5'-32P; for binding result: single-stranded DNA.

The test system of data set [2] is INTS3FL in co-expressed complex + hNABP1 (hSSB2) + C9ORF80. To be noted: EMSA: 20 mM HEPES pH 7.3, 100 mM KCl, 1 mM MgCl2, 1 mg/ml BSA, 1 mM DTT, 6% glycerol, 0.5 nM 32P substrate, 30 min on ice; 5% native PAGE, 1x TBE, 4°C; recombinant protein; label: 5'-32P.

For some assays here: Negatives hold for the conditions tested. For some assays here: At least one verdict rests on a figure or table, not on a statement of the authors. For some assays here: Tags and fusion partners may be left off the protein sequences shown. For some assays here: The comparison behind a weaker result is the experiment's own reference, which may not be listed here. For some assays here: Construct, isoform or probe ends are uncertain for at least one entry.

The Kd is the free concentration of one partner at which half of the binding sites on the other are occupied at equilibrium, for simple one-to-one binding.

As to TTTTTTTTTTTTTTTTTTTTTTTTTTTTTT [dT30], the binding result (in data set [1]; in the data set on INTS3FL + hNABP1 (hSSB2) (single-stranded DNA); in the data set on INTS3N (human) (single-stranded DNA); in the data set on INTS3FL + hNABP2 (hSSB1) (single-stranded DNA)) was “binds more weakly” in each case.

Take TTTTTTTTTTTTTTTTTTTT [dT20]: the binding result in the data set with INTS3FL (human) was “no binding”; with C9ORF80 (human) it was “binds”.

TTTTTTTTTT [dT10]: the binding result with INTS3FL (human) and in the data set with C9ORF80 (human) was “no binding” throughout.

On to “TTTTTTTTTTTTTTTTTTTTTTTTTTTTTTTTTTTTTTTTTTTTTTTTTTTTTTTTTTTT [dT60]”, for which the binding result with C9ORF80 (human) is given as “binds”.

Take UUUUUUUUUUUUUUUUUUUUUUUUUUUUUU [rU30]: the binding result (in data set [2]; in the data set on INTS3FL + hNABP1 (hSSB2); in the data set with INTS3N (human); with INTS3FL + hNABP2 (hSSB1)) was “binds more weakly” in each case. Further, in the data set with C9ORF80 (human), the Kd was over 85 µM.

Values taken from paper PMC5748837.
